Measurements reported in PubChem BioAssay AID1159578 (Peter MacCallum Cancer Centre, 2015).

- Screen: 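Genome-wide hunt for genes controlling movement of lymphatic endothelial cells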 (primary screen)
- Cells: human lymphatic endothelial cells
- Reagents: siRNA pool against human genes, 40 nM
- Duration: 48 h after transfection
- Measured: 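Cells stained with dye and imaged after a scratch; covered wound area and nuclei counted, duplicates averaged, migration set against mock wells and turned into a robust z-score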
- Reading the numbers: migration robust z-score: higher = faster migration into the scratch; nuclei per well: higher = more cells in the well
- Call rule: 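Pools averaging fewer than 3300 nuclei are never called; remaining pools count as changed when migration robust z lies outside -2 to 2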
- Meaning of the calls: active = migration changed; inactive = no migration change, or too few cells
Shown is an unselected part of about 18,000 reagents. In the full data, about 1,030 (5.7%) got an active call. 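Inactive calls also include pools with fewer than 3300 nuclei, whose migration was not assessed.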 Raw values vary from plate to plate and are shown uncorrected. A number with no mark means an inactive call. Not all columns of the deposit are shown.

{"target": "YIPF7", "migration robust z-score": -1.49, "nuclei per well, duplicate mean": 6448}
{"target": "HELB", "migration robust z-score": 1.14, "nuclei per well, duplicate mean": 6272}
{"target": "PRG4", "migration robust z-score": 0.5, "nuclei per well, duplicate mean": 4948}
{"target": "ALKAL2", "migration robust z-score": -1.17, "nuclei per well, duplicate mean": 5446}
{"target": "CHST13", "migration robust z-score": -0.13, "nuclei per well, duplicate mean": 5380}
{"target": "NMNAT2", "migration robust z-score": -1.32, "nuclei per well, duplicate mean": 4846}
{"target": "KCNG4", "migration robust z-score": 0.08, "nuclei per well, duplicate mean": 6664}
{"target": "RIOK2", "migration robust z-score": 1.17, "nuclei per well, duplicate mean": 6990}
{"target": "SYF2", "migration robust z-score": 1.01, "nuclei per well, duplicate mean": 6334}
{"target": "TMCO4", "migration robust z-score": 0, "nuclei per well, duplicate mean": 4774}
{"target": "SEPTIN6", "migration robust z-score": "-2.65 (active)", "nuclei per well, duplicate mean": 3956}
{"target": "TRIM51", "migration robust z-score": 0.52, "nuclei per well, duplicate mean": 5912}
{"target": "HMGN2P46", "migration robust z-score": -0.8, "nuclei per well, duplicate mean": 4515}
{"target": "MATCAP2", "migration robust z-score": 0.34, "nuclei per well, duplicate mean": 6210}
{"target": "TAF6L", "migration robust z-score": 0.2, "nuclei per well, duplicate mean": 5968}
{"target": "SLC15A1", "migration robust z-score": -0.8, "nuclei per well, duplicate mean": 5524}
{"target": "TOX3", "migration robust z-score": -0.5, "nuclei per well, duplicate mean": 6234}
{"target": "OSBPL9", "migration robust z-score": 1.46, "nuclei per well, duplicate mean": 5799}
{"target": "RNF138", "migration robust z-score": 0.02, "nuclei per well, duplicate mean": 5017}
{"target": "C1QL4", "migration robust z-score": -0.86, "nuclei per well, duplicate mean": 5727}
{"target": "SPRR1B", "migration robust z-score": -0.87, "nuclei per well, duplicate mean": 3332}

Part of the list above, reformatted.
RNF138: migration robust z-score = 0.02; nuclei per well, duplicate mean = 5017
C1QL4: migration robust z-score = -0.86; nuclei per well, duplicate mean = 5727
